According to patent US10214766B2, “Luminescent substrate for use in artificial bioluminescent enzyme” (NATIONAL INSTITUTE OF ADVANCED INDUSTRIAL SCIENCE AND …, priority 2013, dated 2019):

The compounds below were run on ALuc34 (assay: Bioluminescence spectrum of ALuc34 lysate with luminescent substrate). Conditions: 5 μL lysate + 30 μL substrate, AB-1850.
Type: biochemical
`O=c1c(Cc2ccccc2)nc2c(Cc3ccccc3)[nH]c(-c3ccc(O)cc3)cn1-2` [CTZ h, coelenterazine h] was tested, and the “Spectrum peak ALuc34” value was 519 nm. In the case of `O=c1c(Cc2ccc(I)cc2)nc2c(Cc3ccccc3)[nH]c(-c3ccc(O)cc3)cn1-2` [CTZ i, coelenterazine i], the “Spectrum peak ALuc34” value is reported as 526 nm. In the case of `O=c1c(Cc2ccc(F)cc2)nc2c(Cc3ccccc3)[nH]c(-c3ccc(O)cc3)cn1-2` [CTZ f, coelenterazine f], the “Spectrum peak ALuc34” value is reported as 515 nm.
